# Test results: publication PMC3424243
# By UniProt entry, the sequences of proteins in these tests, tags left out. Where a name states a change or a piece, a line headed by the entry shows the natural chain unless it says otherwise.
# UniProt Q95XC8: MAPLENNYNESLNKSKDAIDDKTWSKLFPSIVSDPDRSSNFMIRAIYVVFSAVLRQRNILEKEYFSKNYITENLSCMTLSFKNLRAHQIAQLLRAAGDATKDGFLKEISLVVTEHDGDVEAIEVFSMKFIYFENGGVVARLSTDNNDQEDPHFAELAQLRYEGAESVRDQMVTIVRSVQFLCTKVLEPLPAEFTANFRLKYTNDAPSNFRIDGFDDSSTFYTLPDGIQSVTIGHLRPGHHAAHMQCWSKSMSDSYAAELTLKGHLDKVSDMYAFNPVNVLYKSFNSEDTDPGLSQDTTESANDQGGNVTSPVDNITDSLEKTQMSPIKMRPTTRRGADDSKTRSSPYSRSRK
# T1: GFP::LAB-1::HA expressed in a transgenic C. elegans line (C. elegans) (UniProt Q17604)
# T1 sequence: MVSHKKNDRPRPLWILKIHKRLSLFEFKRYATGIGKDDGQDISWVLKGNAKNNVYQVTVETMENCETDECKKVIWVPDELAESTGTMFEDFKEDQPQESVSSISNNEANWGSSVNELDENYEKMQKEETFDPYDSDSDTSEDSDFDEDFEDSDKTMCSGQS
# Target: T1, GFP::LAB-1::HA expressed in a transgenic C. elegans line (C. elegans)
# Assay: affinity purification with mass spectrometry; immunoprecipitation with GFP antibodies from whole worm lysates of the line expressing GFP-LAB-1, mass spectrometry; stringent conditions
row,Molecule,binding
1,"HTP-2, axial element protein (from UniProt Q95XC8)",binds
2,"HIM-3, axial element protein (protein, UniProt G5EBG0 1-291) MATKEQIVEHRESEIPIASQWKATFPVDLEIEKNSEMFALRYIKCASAFILDRRGILDEKCFKTRTIDKLLVTAFQSSVPAAKRVSSTFDGLRDAIQQGYLREFAIVFYKKPNEEDINEVFAFRFAYGDEGEIFVSLNNGIDTNESSQELLQAKFVDTDNTKQMFASTIKKLHRCIKKMEPLPQGSDASFRVSYTEKAPKDYTPEGYLLSPMFYTLNQDIRKASIGIVCGGHHKIQMLAASQYLKQDFDLDKTTTLNPNMSIMANQSKRKGRISRDSPYGLSQGITKKNKD",binds
3,"HTP-1, axial element protein (protein, UniProt Q20305 1-352) MAPLETIYDESLNKSADSIDDKKWSKLFPRIVSDPDRSSNFMTRAIYVAFSAVLRNRNILGQEYFTKNYITEKLKCMTLCFRNPRSNQIAQLLRNAGDATKDGFLKEVSLVITNNEGDLEAIEVFSMKFIYFENGGVVARLSTDKNGQEDPHFAKLAQLVYEGGDSVRDQMVTIVRSVQFLCTKVLEPLPEEFTANFRLEYTNDAPSNFRIDGFEDSSTFYTLPDDIQSATIGHLRPGCHAANMECWSMLMSDSYEAELTLKRHLDKVSDRHGFNPVNVLYKSFNSEDSDTSLSQATTESVNDQGGNETSPVDDITESLEKAQMSPIQTRPTTRRGADGSKTRSSPYSRSCK",binds
4,"HTP-3, axial element protein (protein, UniProt O01820 1-739) MDESFDSSVVPGSLTSDDRAIFNEQTLKNGDENSKSSLEVMANCVYLANSTILRERKVIPAEYFQDFQVYGDVSGYTLRQDIPEGRSVSSKLLASHDAIRQKLLQKLAIVVEESLNTNPVETFVWTFVYDSTTSASAEIGYGGRKSKFVVNYLNMDDTAQQFCKMFSELRNVLSLLRPLPRGLIPSMKVAYRGEPEFVPGFQQVDDFVNPEQINLGAVSFPHGNGFQFAYASKFMVEQPSAIRPPVEVSHFEDDLLNSTITPIEVVRDNTMNCAENPELDEIYFSPGRQEVRMDEDVANESIRCNPSMASEMMVLQSEYNVLIADNDEVPMVVERERSPIVKAAKKRSTRAPAVPITPTEPASPVESPVKEQPQKAPKAQMRRSSKRTTKNNERCEQKEEEPIVNPKRRSARRLVPPVEVDEQPEEQNDDDAQNSLQIDSDAQNSLQIDSDAIITSPEKRNESKSAIPEEAADLDNTTSEKQESSTARYGVSNTSINRKKPDPVANPVSEEAQVDLANGSIPDKRPRKRKYGRVSSILDVADLPTDDTVEEDVRESPIYGRVPSILDVARAEENDAQNDAQDAQNEIAVEGLADLSIDTEQHEEAAPINVTGHQSESVPIIVTEHQSEEAQTVVTEQPAGAASVIAAERHYGRVSSILDVAGSFADVDPSGAAPAIATERHYGRVSSILDVAGSLSDVDPQEDTESSTQNQSTSKKFKPNPPKAMRYGQSPNMPSRRGN",binds

# These are yes or no findings as the source states them, for the method shown. In cells and extracts the contact can be indirect. Here binding means that the protein was enriched with, or labelled near, the bait; the list need not be complete. Tags and fused reporters may be left off the sequences shown.
